From article doi:10.1101/776567
These are yes or no findings as the source states them, for the method shown. Some results given as binding are weak or reduced against the parent protein; the word gives no strength.

Sequences of proteins named here, by UniProt entry; tags and fusion partners are left off.
UniProt Q9UJ41: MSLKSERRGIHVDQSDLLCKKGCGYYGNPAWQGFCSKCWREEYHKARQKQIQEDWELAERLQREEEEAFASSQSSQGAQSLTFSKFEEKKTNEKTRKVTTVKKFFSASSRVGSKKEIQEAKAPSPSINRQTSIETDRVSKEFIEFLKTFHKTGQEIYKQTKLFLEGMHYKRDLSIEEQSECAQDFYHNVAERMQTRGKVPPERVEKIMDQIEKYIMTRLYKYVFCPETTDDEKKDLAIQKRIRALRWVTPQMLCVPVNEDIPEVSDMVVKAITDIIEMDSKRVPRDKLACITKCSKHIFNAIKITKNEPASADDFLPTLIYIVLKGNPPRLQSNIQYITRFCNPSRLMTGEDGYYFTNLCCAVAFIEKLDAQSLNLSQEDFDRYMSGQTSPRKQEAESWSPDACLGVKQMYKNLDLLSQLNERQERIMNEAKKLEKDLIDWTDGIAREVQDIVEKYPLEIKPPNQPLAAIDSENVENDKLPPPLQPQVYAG

Biological target: T1, Rabaptin5 (UniProt Q15276)
T1 sequence: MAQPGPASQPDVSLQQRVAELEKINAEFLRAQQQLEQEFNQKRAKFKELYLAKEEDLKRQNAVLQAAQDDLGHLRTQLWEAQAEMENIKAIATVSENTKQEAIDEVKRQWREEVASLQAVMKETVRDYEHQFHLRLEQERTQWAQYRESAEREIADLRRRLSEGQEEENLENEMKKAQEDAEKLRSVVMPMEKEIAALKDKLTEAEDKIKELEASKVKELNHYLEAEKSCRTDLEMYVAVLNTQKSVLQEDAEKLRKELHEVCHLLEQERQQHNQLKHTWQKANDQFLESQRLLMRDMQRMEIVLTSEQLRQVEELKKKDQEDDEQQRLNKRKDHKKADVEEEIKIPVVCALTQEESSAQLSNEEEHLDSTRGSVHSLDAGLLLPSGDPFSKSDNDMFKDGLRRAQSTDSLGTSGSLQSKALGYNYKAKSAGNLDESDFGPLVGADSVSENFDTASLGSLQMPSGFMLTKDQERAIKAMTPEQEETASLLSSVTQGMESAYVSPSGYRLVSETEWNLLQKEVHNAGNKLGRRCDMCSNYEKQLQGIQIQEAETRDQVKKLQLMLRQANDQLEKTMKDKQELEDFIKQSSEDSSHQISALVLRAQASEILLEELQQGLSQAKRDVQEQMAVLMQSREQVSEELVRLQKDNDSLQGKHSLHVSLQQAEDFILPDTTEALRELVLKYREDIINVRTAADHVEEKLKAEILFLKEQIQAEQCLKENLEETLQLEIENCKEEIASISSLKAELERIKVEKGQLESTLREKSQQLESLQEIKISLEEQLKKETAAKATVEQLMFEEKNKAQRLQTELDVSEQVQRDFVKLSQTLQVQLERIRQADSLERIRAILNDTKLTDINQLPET
Experiment: co-purification

binding: binds
Substance: Rabex5 (from UniProt Q9UJ41 1-491) (enzyme)
